Test results published in the supplement of paper PMC12067093, “Discovery and optimisation of a covalent ligand for TRIM25 and its application to targeted protein ubiquitination” (Chemical Science, 2025).
The list shows a part of the results.

Amino acid sequences for entries named in this document (tags omitted). A change or cut given only in a name is not applied to a line headed by its entry.
UniProt Q92643: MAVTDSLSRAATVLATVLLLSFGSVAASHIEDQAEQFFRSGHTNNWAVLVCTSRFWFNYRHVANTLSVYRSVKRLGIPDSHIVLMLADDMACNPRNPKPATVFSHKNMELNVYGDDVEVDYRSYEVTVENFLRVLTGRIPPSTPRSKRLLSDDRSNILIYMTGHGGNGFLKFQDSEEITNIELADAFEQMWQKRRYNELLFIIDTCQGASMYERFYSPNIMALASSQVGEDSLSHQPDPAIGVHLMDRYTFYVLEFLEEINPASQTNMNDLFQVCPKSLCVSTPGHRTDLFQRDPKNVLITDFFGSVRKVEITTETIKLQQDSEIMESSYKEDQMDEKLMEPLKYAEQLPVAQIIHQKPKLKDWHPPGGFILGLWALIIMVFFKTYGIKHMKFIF

How the values were obtained:
[1] = target: PIGK_Q92643_92_LGIPDSHIVLMLADDMACNPR (UniProt Q92643); assay: probe-labelled cysteine peptide fold change vs DMSO (competition) (log2 fold change); higher = less target engagement (more negative = stronger competition); conditions: THP-1, incubation time: 4 h
[2] = target: PIGK_Q92643_92_RLGIPDSHIVLMLADDMACNPR (UniProt Q92643); assay: as above; conditions: THP-1, incubation time: 4 h
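Also: competitive chemoproteomic profiling in live THP-1 cells with an iodoacetamide desthiobiotin (IA-DTB) probe, comparing probe-labelled peptide intensities in compound-treated cells against DMSO-treated controls.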

## CC1Cc2ccccc2N1C(=O)C1CCCN(C(=O)CCl)C1 (mixture of isomers) [TRIM25 ligand 11 (diastereomer mixture)]
[1]; 10 µM
  probe-labelled cysteine peptide fold change: 0.0738
[1]; 50 µM
  probe-labelled cysteine peptide fold change: -0.172
[2]; 10 µM
  probe-labelled cysteine peptide fold change: 0.0462
[2]; 50 µM
  probe-labelled cysteine peptide fold change: 0.012
